Assay results: PubChem BioAssay AID248 (DTP/NCI, 2004)
The list does not hold the whole screen: it gathers tests that were run many times, whatever their T/C, doses with no T/C, and many T/C values between a quarter and a half above the control. Further doses and runs are listed elsewhere. T/C is the treated group as % of the vehicle group. Some entries give survivors of the animals treated and no T/C: the source files T/C as zero there, which appears to mark a toxic dose or a test without result, not a measured value. Some doses without a T/C left all or most animals alive at the check, yet need not have been tolerated: the source hardly ever lists a survival T/C far under the control, and the zero likely stands for such cases as well. Counts of survivors are from the toxicity check (mostly the fifth day) where no day follows; animals may have died later. Schedule codes are those of the source, taken here to give the interval after Q, in days (D) or hours (H), and the number of doses after X. Some schedules carry Z or #; the key to these is not given. Some doses were run more than once; their values stand side by side, smallest first. Some structures stand for samples that the source files as different forms (salt, stereo form or complex); doses refer to the form tested. Where survival is the endpoint, this PubChem deposit counts one and a half times the control or more as active, and values a quarter to a half above the control carry no call in these data; other NCI protocols may use other cut-offs. Some T/C values carry the count of animals alive at the toxicity check (mostly the fifth day); where none is given, no animal had died by that day.

System: L1210 leukemia ip in BDF1 mice, survival T/C
Assay: NCI In Vivo Anticancer Drug Screen. Data for tumor model L1210 Leukemia (intraperitoneal) in B6D2F1 (BDF1) mice
Conditions: T/C endpoint: mean survival time, higher T/C = longer survival
[1] = dose: 400.0 mg/kg/injection, schedule: Q04DX003 (ip), vehicle: saline
[2] = dose: 100.0 mg/kg/injection, schedule: Q04DX003 (ip), vehicle: Klucel (hydroxypropylcellulose) (HPC)
[3] = dose: 200.0 mg/kg/injection, schedule: Q04DX003 (ip), vehicle: Klucel (hydroxypropylcellulose) (HPC)
[4] = dose: 400.0 mg/kg/injection, schedule: Q04DX003 (ip), vehicle: Klucel (hydroxypropylcellulose) (HPC)
[5] = dose: 400.0 mg/kg/injection, schedule: Q01DX001 (ip), vehicle: other

O=[N+]([O-])c1ccc(O)cc1
survivor count (dose: 100.0 mg/kg/injection, schedule: Q04DX003 (ip), vehicle: other): 6 of 6 | survivor count (dose: 200.0 mg/kg/injection, schedule: Q04DX003 (ip), vehicle: other): 0 of 6 | survivor count (dose: 400.0 mg/kg/injection, schedule: Q01DX001 (ip), vehicle: saline): 0 of 4 | survivor count (dose: 400.0 mg/kg/injection, schedule: Q04DX002 (ip), vehicle: saline with Tween-80): 0 of 3 | survivor count (dose: 400.0 mg/kg/injection, schedule: Q04DX003 (ip), vehicle: other): 0 of 6

CC[CH2][Pb]([CH2]CC)([CH2]CC)[N]1C(=O)c2ccccc2C1=O
survivor count (dose: 12.5 mg/kg/injection, schedule: Q01DX009 (ip), vehicle: saline): 5 of 6 | survivor count (dose: 25.0 mg/kg/injection, schedule: Q04DX002 (ip), vehicle: saline): 2 of 3 | survivor count (dose: 50.0 mg/kg/injection, schedule: Q04DX002 (ip), vehicle: saline): 0 of 3 | survivor count (dose: 100.0 mg/kg/injection, schedule: Q04DX002 (ip), vehicle: saline): 1 of 3 | survivor count (dose: 200.0 mg/kg/injection, schedule: Q04DX002 (ip), vehicle: saline): 3 of 3 | survivor count (dose: 400.0 mg/kg/injection, schedule: Q04DX002 (ip), vehicle: saline): 1 of 3

[NH-]C(CCC(N)=O)C(=O)O.[NH-]C(CCC(N)=O)C(=O)O.[Pd+2] (stereo not given)
survivor count [1]: 2 of 3

CCNCCn1cccc1
survivor count [1]: 1 of 6

C=CCOc1ccc(Cl)cc1
survivor count (dose: 400.0 mg/kg/injection, schedule: Q04DX003 (ip), vehicle: saline with Tween-80): 1 of 3

Fc1nc2nc(C(F)(F)F)[nH]c2nc1F
survivor count (dose: 200.0 mg/kg/injection, schedule: Q01DX009 (ip), vehicle: saline): 4 of 6 | survivor count (dose: 400.0 mg/kg/injection, schedule: Q01DX009 (ip), vehicle: saline): 0 of 6

Nc1ccc(Cl)cc1-c1ccccc1
T/C (dose: 83.0 mg/kg/injection, schedule: Q01DX Z (ip), vehicle: saline): 125 % of control

C[N+](C)(C)C1CCCCC1
survivor count (dose: 300.0 mg/kg/injection, schedule: Q01DX001 (ip), vehicle: saline): 0 of 6 and 1 of 6

NC(=S)N/N=C/C(=O)O
survivor count (dose: 50.0 mg/kg/injection, schedule: Q01DX001 (ip), vehicle: saline): 4 of 4

CN(C)C(C#N)c1c[nH]c2ccccc12 (stereo not given)
survivor count (dose: 50.0 mg/kg/injection, schedule: Q01DX009 (ip), vehicle: Klucel (hydroxypropylcellulose) (HPC)): 0 of 6 | survivor count [2]: 1 of 6 | survivor count [3]: 0 of 6 | survivor count [4]: 1 of 6

CC(C)=CCC/C(C)=C/CN1C(=O)C=CC1=O
survivor count (dose: 50.0 mg/kg/injection, schedule: Q01DX009 (ip), vehicle: water): 1 of 6 | survivor count (dose: 100.0 mg/kg/injection, schedule: Q04DX003 (ip), vehicle: water): 0 of 6 | survivor count (dose: 200.0 mg/kg/injection, schedule: Q04DX003 (ip), vehicle: water): 0 of 6 | survivor count (dose: 400.0 mg/kg/injection, schedule: Q04DX003 (ip), vehicle: water): 0 of 6

O=C(O)c1ccc(CCc2cccnc2)cc1
survivor count (dose: 400.0 mg/kg/injection, schedule: Q01DX001 (ip), vehicle: saline with Tween-80): 2 of 6

CC(C)/C=C(\C#N)C(=O)O
survivor count (dose: 12.5 mg/kg/injection, schedule: Q01DX009 (ip), vehicle: Klucel (hydroxypropylcellulose) (HPC)): 3 of 6 | survivor count [2]: 0 of 6 | survivor count [3]: 0 of 6 | survivor count [4]: 0 of 6

CCOc1ccc(NC(=S)NC(=O)c2ccco2)cc1
survivor count (dose: 400.0 mg/kg/injection, schedule: Q01DX009 (ip), vehicle: saline with Tween-80): 1 of 6

CCCC(=O)OCC1OC(n2cnc3c(=S)nc(N)[nH]c32)C(OC(=O)CCC)C1OC(=O)CCC (stereo not given)
T/C (dose: 3.5 mg/kg/injection, schedule: Q01DX Z (ip), vehicle: carboxymethylcellulose (CMC)): 132 and 135 % of control | T/C (dose: 5.0 mg/kg/injection, schedule: Q01DX Z (ip), vehicle: carboxymethylcellulose (CMC)): 149 % of control | T/C (dose: 5.3 mg/kg/injection, schedule: Q01DX Z (ip), vehicle: carboxymethylcellulose (CMC)): 138 % of control | T/C (dose: 5.4 mg/kg/injection, schedule: Q01DX Z (ip), vehicle: carboxymethylcellulose (CMC)): 130 % of control | T/C (dose: 8.0 mg/kg/injection, schedule: Q01DX Z (ip), vehicle: carboxymethylcellulose (CMC)): 149 % of control | T/C (dose: 9.0 mg/kg/injection, schedule: Q01DX Z (ip), vehicle: carboxymethylcellulose (CMC)): 138 % of control | T/C (dose: 12.0 mg/kg/injection, schedule: Q01DX Z (ip), vehicle: carboxymethylcellulose (CMC)): 132, 144, 150, 162 % of control | T/C (dose: 15.0 mg/kg/injection, schedule: Q01DX Z (ip), vehicle: carboxymethylcellulose (CMC)): 141 % of control | T/C (dose: 16.2 mg/kg/injection, schedule: Q01DX Z (oral), vehicle: carboxymethylcellulose (CMC)): 125 % of control | T/C (dose: 17.0 mg/kg/injection, schedule: Q01DX Z (ip), vehicle: carboxymethylcellulose (CMC)): 148 % of control [5 of 6 alive] | T/C (dose: 25.0 mg/kg/injection, schedule: Q01DX Z (ip), vehicle: carboxymethylcellulose (CMC)): 138 and 148 % of control | T/C (dose: 42.0 mg/kg/injection, schedule: Q01DX Z (ip), vehicle: carboxymethylcellulose (CMC)): 144 % of control | T/C (dose: 45.0 mg/kg/injection, schedule: Q01DX Z (oral), vehicle: carboxymethylcellulose (CMC)): 146 % of control | T/C (dose: 75.0 mg/kg/injection, schedule: Q01DX Z (oral), vehicle: carboxymethylcellulose (CMC)): 130 % of control

CC(C)(C)c1ccc(OC(=O)Nc2ccc(O)c(C(=O)O)c2)cc1
survivor count (dose: 200.0 mg/kg/injection, schedule: Q01DX001 (ip), vehicle: Klucel (hydroxypropylcellulose) (HPC)): 1 of 6 | survivor count (dose: 200.0 mg/kg/injection, schedule: Q01DX009 (ip), vehicle: Klucel (hydroxypropylcellulose) (HPC)): 5 of 6 | survivor count (dose: 400.0 mg/kg/injection, schedule: Q01DX001 (ip), vehicle: Klucel (hydroxypropylcellulose) (HPC)): 0 of 6 | survivor count (dose: 400.0 mg/kg/injection, schedule: Q01DX009 (ip), vehicle: Klucel (hydroxypropylcellulose) (HPC)): 0 of 3 and 0 of 6 | survivor count (dose: 400.0 mg/kg/injection, schedule: Q04DX002 (ip), vehicle: Klucel (hydroxypropylcellulose) (HPC)): 0 of 3 and 2 of 6 | survivor count [4]: 0 of 6

O=C(Nc1ccccc1F)Nc1ccccc1Cl
survivor count (dose: 100.0 mg/kg/injection, schedule: Q01DX009 (ip), vehicle: Klucel (hydroxypropylcellulose) (HPC)): 6 of 6 | survivor count [4]: 6 of 6

N#CC(C#N)=Cc1ccc(Cl)c(Cl)c1
survivor count [5]: 2 of 4

CC1(C)N=C(N)N=C(N)N1c1cccc(CCC(=O)Nc2ccc(S(=O)(=O)F)cc2)c1
survivor count (dose: 500.0 mg/kg/injection, schedule: Q01DX009 (ip), vehicle: saline): 3 of 6

CC1(C)OC2C(CO)OC(n3cnc4c(N)ncnc43)C2O1 (stereo not given)
survivor count [4]: 5 of 6

COCCOC(C)C(=O)C(O)S(=O)(=O)O (stereo not given)
survivor count (dose: 63.0 mg/kg/injection, schedule: Q01DX Z (oral), vehicle: saline): 7 of 7 | survivor count (dose: 125.0 mg/kg/injection, schedule: Q01DX Z (oral), vehicle: saline): 7 of 7 | survivor count (dose: 250.0 mg/kg/injection, schedule: Q01DX Z (oral), vehicle: saline): 7 of 7

Nc1nc(N)c2cc(CNc3ccc(C(=O)NC(CCC(=O)O)C(=O)O)cc3)cnc2n1 (stereo not given)
survivor count (dose: 100.0 mg/kg/injection, schedule: Q01DX001 (ip), vehicle: other): 4 of 6 | survivor count (dose: 200.0 mg/kg/injection, schedule: Q01DX001 (ip), vehicle: other): 3 of 6 | survivor count [5]: 3 of 6

O/N=C(\C=N\O)c1ccccc1
survivor count (dose: 400.0 mg/kg/injection, schedule: Q04DX003 (sc), vehicle: olive oil, sesame oil, peanut oil): 6 of 6
